From PubChem BioAssay AID651640 (Broad Institute, 2012)
Several values for one entry are separate records, joined by “and”; a condition that tells them apart may be missing. Equal values may be shown once. In all, about 350,000 compounds went through this assay and about 6,000 (1.7%) were called active. The inconclusive results got no clear call from the source; some entries with a clear call stand among them for comparison. Rule as the data show it: active = CPE inhibition above about 20% (passing the limit was not always enough); inconclusive = no clear call, values can overlap the other calls; tested in BHK-21 cells. Some structures have more than one record in an assay (separate samples or runs), and their calls can disagree.

test: protection of cells from dengue 2 killing – plate reader, single concentration, primary screen (AID 651640); conditions: DENV2-infected cells, cytopathic effect rescue, at 9.99 µM, hits give high values;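 also: 0% = median of neutral control wells and 100% = median of positive control wells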

SMILES	CPE inhibition
CC(=O)c1ccc(NC(=O)CSc2nc3[nH]ncc3c(=O)[nH]2)cc1	inactive: 0.935%
O=C(NNc1c(F)c(F)cc(F)c1F)C1CCN(S(=O)(=O)c2ccccc2F)CC1	active: 42.9%
Cc1[nH]c2ccc(C(=O)N3CCN(c4cccc(Cl)c4)CC3)cc2c1C	inconclusive: 22.5%
CC(=O)c1ccc(NC(=S)N2CCCC2)cc1	inconclusive: 40.6%
CS(=O)(=O)N1[C@H](C#N)[C@@H](c2ccc(C#Cc3cccc(F)c3)cc2)[C@H]1CO	inactive: -18.5%
CCCCn1c(N)c(N(C(=O)CSc2nncn2-c2ccccc2)C2CCCC2)c(=O)[nH]c1=O	inconclusive: 26.8%
O=C(C[C@H]1C=C[C@H](NC(=O)Nc2cc(F)ccc2F)[C@H](CO)O1)NCc1ccccn1	inconclusive: 20.6%
CCc1c(-c2ccccc2F)ncn1Cc1cccc(-c2ccccc2)c1	active: 59.3%
C[C@@H]1CCCCO[C@@H](CN(C)C(=O)Nc2ccc(F)cc2)[C@H](C)CN([C@H](C)CO)C(=O)c2cc(NS(=O)(=O)c3cn(C)cn3)ccc2O1	inactive: -2%
O=C(Nc1ccccc1Cl)N1C[C@@H]2[C@H](c3ccccc31)[C@H](CO)N2Cc1ccccc1	inconclusive: 77.3%
O=C(c1cccc([N+](=O)[O-])c1)N1CCCC(C(=O)N2CCN(c3ccccc3)CC2)C1 (configuration not stated)	inconclusive: 21.6%
CCCNC(=O)N(C)C[C@@H]1Oc2ncc(C#CC3CC3)cc2C(=O)N([C@@H](C)CO)C[C@@H]1C	inactive: -7.57%
O=C(Nc1nnc(S(=O)(=O)N2CCOCC2)s1)c1ccc(F)cc1	inconclusive: 24.1%
COc1ccc(NC(=O)c2ccc(-c3c(C)noc3C)c3ccoc23)cc1	inconclusive: 25.7%
O=C(NC1Cc2ccccc2C1)[C@H]1[C@H](CO)[C@H]2Cn3c(cccc3=O)[C@H]2N1C(=O)c1ccccn1	inconclusive: 36.3%
CC(=O)N(C)C[C@H]1Oc2ncc(-c3ccc(C#N)cc3)cc2C(=O)N([C@H](C)CO)C[C@H]1C	inactive: 16.9%
Cc1cccc(N2C(=O)c3cccc4cccc(c34)C2=O)c1	inactive: 3.6%
O=C(NCc1ccccn1)c1ccccc1OCc1ccc(Cl)cc1Cl	inconclusive: 26.8%
C[C@H](CO)N1C[C@H](C)[C@@H](CN(C)C(=O)Nc2cccc(Oc3ccccn3)c2)OCc2cn(nn2)CCCC1=O	inconclusive: 38.2%
COc1ccc(C2(c3ccc(OC)cc3)NC(=O)N(CC(=O)Nc3ccc(OC)c(OC)c3)C2=O)cc1	inactive: -1.49%
Cn1nccc1-c1ccc(C(=O)Nc2cccc(NS(C)(=O)=O)c2)c2occc12	inactive: -8.83%
O=C1CN(Cc2ccc(F)cc2)C[C@@H]2[C@H](c3ccc(-c4ccccc4)cc3)[C@H](CO)N12	inconclusive: 29.6%
O=C(CCn1c(=S)[nH]c2ccccc2c1=O)NCCc1ccc(Cl)cc1	inconclusive: 21.5%
COC(=O)C1(C)COP(=O)(Nc2ccc(OC)cc2)OC1 (configuration not stated)	inconclusive: 66.8%

SMILES	CPE inhibition
COc1cc(OC)c(C(=O)OCCCOC(=O)c2cc(OC)c(OC)cc2OC)cc1OC	inactive: 9.26%
O=C(c1csc(Nc2cccc3ccccc23)n1)N1CCCC1	inconclusive: 36.6%
Cc1c(Cl)cccc1NC(=O)Cn1cc(C(F)(F)F)cc(Cl)c1=O	inactive: 2.97%
COC(=O)C(CCC(C(=O)OC)N1C(=O)c2ccccc2C1=O)N1C(=O)c2ccccc2C1=O (configuration not stated)	inconclusive: 24.2%
CC/C=C(\NC(C)=O)c1ccccc1	inconclusive: 35.7%
CCN(CC)S(=O)(=O)c1ccc(N2CCOCC2)c(NC(=O)CN2C(=O)NC(C)(c3ccccc3)C2=O)c1 (configuration not stated)	inconclusive: 63.4%
COc1ccc(S(=O)(=O)N2[C@@H]3CNC[C@H]2C3c2ccc(-c3cccc(OC)c3)cc2)cc1 (some centres not stated)	inconclusive: 21.3%
O=C(Nc1ccc2c(c1)OCO2)N1[C@@H]2CNC[C@H]1C2c1ccc(-c2ccncc2)cc1 (some centres not stated)	inactive: 0.984% and inactive: -2.87%
CN1CCN(C(=O)C2=C[C@@H](C3CCCCC3)C[C@@H](OCCCCO)O2)CC1	inconclusive: 30.6%
COc1ccc(S(=O)(=O)N(C)C[C@H]2OCc3cnnn3CCCC(=O)N([C@@H](C)CO)C[C@H]2C)cc1	active: 63.9%
CNC[C@@H]1OCCCC[C@H](C)Oc2ccc(NS(=O)(=O)c3c(C)noc3C)cc2C(=O)N([C@@H](C)CO)C[C@@H]1C	active: 132%
COc1ccc(CN2C(=O)C(CC(=O)NCCCN(C)C)CC(C(=O)N3CCOCC3)=C2C)cc1 (configuration not stated)	inconclusive: 74.3%
COc1ccccc1-c1cn(CC[C@H]2CC[C@H](NC(=O)c3ccccc3F)[C@H](CO)O2)nn1	inactive: 0.051%
COc1cccc(Nc2nc(CN3CCOCC3)nc3sc4c(c23)CCCC4)c1	inactive: 9.4%
C[C@@H]1CN([C@@H](C)CO)S(=O)(=O)c2ccc(C3=CCCCC3)cc2O[C@@H]1CN(C)C(=O)Cc1ccccc1	inconclusive: 22%
CO[C@@H]1CC[C@@H]2CCOc3c(C#N)cccc3C(=O)N(C)C[C@H](c3ccccc3)CC(=O)N(C)C[C@H]1O2	inactive: 0.662%
COc1ccc(NC(=O)Nc2ccc3c(c2)C(=O)N([C@@H](C)CO)C[C@H](C)[C@H](CN(C)C(=O)Nc2ccc4c(c2)OCO4)OCCCC[C@H](C)O3)cc1	inactive: -0.766%
C[C@@H]1CN([C@H](C)CO)C(=O)CCCn2nncc2CO[C@H]1CN(C)C(=O)Nc1ccc(-c2cccs2)cc1	inconclusive: 28.8%
Cc1ccc(SCC(=O)OC(C)C(=O)NCc2ccccc2)cc1 (configuration not stated)	active: 64.4%
COc1ccc2c(c1OC)C(=O)N1N=C(c3ccc(F)cc3)CC21 (configuration not stated)	inactive: -3.6%
CN(C)C(=O)c1ccc(-c2ccc(C3[C@@H]4CN(C(=O)c5ccccn5)C[C@H]3N4)cc2)cc1 (some centres not stated)	inconclusive: 25.4%
CNC[C@H]1OCCCC[C@H](C)Oc2ccc(NS(=O)(=O)c3ccc(Cl)cc3)cc2C(=O)N([C@@H](C)CO)C[C@@H]1C	inconclusive: 90.4%
C/C=C/c1ccc(C2[C@@H]3CN(S(=O)(=O)c4ccccc4)C[C@H]2N3)cc1 (some centres not stated)	inactive: 7.91%
O=C(NCc1ccc(Cl)cc1)C(=O)NCC1OCCN1S(=O)(=O)c1cccs1 (configuration not stated)	inconclusive: 30.7%

SMILES	CPE inhibition
N#Cc1c(NC(=O)c2ccc(N3CCOCC3)c([N+](=O)[O-])c2)sc2c1CCCC2	active: 46.3%
C[C@H]1CN([C@@H](C)CO)C(=O)c2cc(-c3cccc(C#N)c3)cnc2O[C@H]1CN(C)Cc1ccccc1	inconclusive: 32.8%
O=C(NC(=O)c1cc([N+](=O)[O-])ccc1Cl)C1=C(N2CCCC2)COC1=O	inconclusive: 20.2%
C[C@@H]1CCCCO[C@H](CN(C)C(=O)c2ccccc2)[C@@H](C)CN([C@@H](C)CO)C(=O)c2cc(NC(=O)C3CCCCC3)ccc2O1	inactive: 1.51%
CC(=O)N1c2ccccc2C2CCCC[C@H]21 (some centres not stated)	inconclusive: 70.5%
COC(=O)[C@]12C[C@H](CC(=O)NCc3ccc(C)o3)C(=O)N(Cc3ccc4c(c3)OCO4)C1=C[C@H](C(C)(C)C)O[C@@H]2C	inconclusive: 31.2%
O=S(=O)(Cc1ccccc1)N1CCCCN2[C@H](CO)[C@@H](c3ccc(-c4cccnc4)cc3)[C@@H]2C1	inactive: -8.3%
CC(=O)c1ccc(NC(=O)CNC2CCCCC2)cc1	inactive: 10.6%
CC(C)COC(=O)N(C)C[C@H]1OCc2cn(nn2)CCCC(=O)N([C@@H](C)CO)C[C@H]1C	inconclusive: 64.5%
Cc1ccc(C(=O)OCC(=O)Nc2cc(S(=O)(=O)N3CCOCC3)ccc2C)cc1	inconclusive: 20.9%
C=CCn1c(=S)[nH]c2cc(C(=O)Nc3ccc(F)cc3)ccc2c1=O	inconclusive: 27.6%
O=C(Nc1nnc(C2=COCCO2)o1)c1ccc(Cc2ccccc2)cc1	inactive: -5.64%
CCOc1ccc(Oc2nc(C)cc(OC)n2)nn1	active: 71.4%
COc1ccccc1-c1ccc([C@H]2[C@@H](CO)N3CCCCN(C(=O)NC4CCCC4)C[C@H]23)cc1	active: 23.2%
C[C@@H]1CN([C@H](C)CO)C(=O)c2cc(C#CC3CC3)cnc2O[C@H]1CN(C)C(=O)Nc1ccccc1	active: 31.3%
O=C(Nc1cccc(-n2cccn2)c1)C1CCCN(Cc2cccc(F)c2F)C1 (configuration not stated)	inconclusive: 36.2%
O=C(C[C@@H]1CC[C@H](NC(=O)Nc2cccc(F)c2)[C@H](CO)O1)NCC1CCCCC1	inactive: -1.06%
COC(=O)C[C@H]1C[C@@H]2c3cc(NC(=O)NC4CCCC4)ccc3O[C@@H]2[C@@H](CO)O1	inconclusive: 79%
CN1C(=O)/C(=C/c2ccc(OC(=O)c3ccco3)cc2)SC1=S	inactive: 0.839%
O=C(NNC(=O)c1ccc(S(=O)(=O)N2CCCCC2)cc1)c1ccccc1	inconclusive: 45.8%
Cc1ccc(S(=O)(=O)N2CCN(C(=O)c3ccccc3-c3nc4ccccc4s3)CC2)c(C)c1	inconclusive: 58.7%
COc1cc(/C=N\NC(=O)c2ccc(C)nc2)ccc1OC(=O)c1cccc(F)c1	inconclusive: 31.9%
O=C(C[C@@H]1C[C@@H]2c3cc(NS(=O)(=O)c4ccc(F)cc4)ccc3O[C@@H]2[C@@H](CO)O1)NCc1cccc(F)c1	inconclusive: 20.2%
CO[C@@H]1CN(C)C(=O)c2cc(NS(C)(=O)=O)ccc2OC[C@@H](C)N(CC2CCCCC2)C[C@H]1C	inconclusive: 45%

Three compounds already listed, sorted by molar mass, largest number first.
SMILES	CPE inhibition
COc1ccc(C2(c3ccc(OC)cc3)NC(=O)N(CC(=O)Nc3ccc(OC)c(OC)c3)C2=O)cc1	inactive: -1.49%
O=C(Nc1cccc(-n2cccn2)c1)C1CCCN(Cc2cccc(F)c2F)C1 (configuration not stated)	inconclusive: 36.2%
C/C=C/c1ccc(C2[C@@H]3CN(S(=O)(=O)c4ccccc4)C[C@H]2N3)cc1 (some centres not stated)	inactive: 7.91%
